Reference: patent US12016358B2, “Composition comprising taste modulation compounds, their use and foodstuff comprising them” (V. MANE FILS, priority 2015, dated 2024)

Test system: Saltiness and Salivation (cheese sauce)
Test: Various levels of pantolactone (D-isomer) in cheese sauce, expert tasters
Assay type: in vivo, human
Source text: Five expert tasters consumed the Control and then samples comprising various levels of pantolactone (D-isomer). It was concluded that pantolactone (D-isomer) is clean tasting up to 10-12 ppm in cheese sauce.

Structure (SMILES): CC1(C)COC(=O)C1O (single isomer, unassigned) [pantolactone (D-isomer)]
- bitterness / off-flavour (footnote to saltiness score) (cheese sauce, 27 ppm): ** Becomes bitter with no off-flavour.
- bitterness / off-flavour of the cheese sauce (cheese sauce, above 10 to 12 ppm): increases the bitterness of the cheese sauce, but it still does not exhibit an off-flavour
- concentration up to which clean tasting (in cheese sauce): 10-12 ppm
- own taste within the range of sodium enhancement (in vivo): neutral tasting
